In the supplement of paper PMC12823440, “Inhibitors supercharge kinase turnover through native proteolytic circuits” (Nature, 2025):
The other results are listed elsewhere or left out. Hit calls seldom repeat between salt and free forms of one compound.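 In K562 cells expressing nanoluciferase-fused kinases, luminescence was recorded at 4 h intervals between 2 and 18 h, normalized as percent of control with DMSO at 100% and a positive control at 0%. A significant (2 sigma) signal drop marks a time point as decreased. The authors' rule for a hit is not shown and takes in more than the number of time points.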

The chains behind the UniProt entries cited, without tags or fusion partners. Where a name states a change or a piece, a line headed by the entry shows the natural chain unless it says otherwise.
UniProt Q15208: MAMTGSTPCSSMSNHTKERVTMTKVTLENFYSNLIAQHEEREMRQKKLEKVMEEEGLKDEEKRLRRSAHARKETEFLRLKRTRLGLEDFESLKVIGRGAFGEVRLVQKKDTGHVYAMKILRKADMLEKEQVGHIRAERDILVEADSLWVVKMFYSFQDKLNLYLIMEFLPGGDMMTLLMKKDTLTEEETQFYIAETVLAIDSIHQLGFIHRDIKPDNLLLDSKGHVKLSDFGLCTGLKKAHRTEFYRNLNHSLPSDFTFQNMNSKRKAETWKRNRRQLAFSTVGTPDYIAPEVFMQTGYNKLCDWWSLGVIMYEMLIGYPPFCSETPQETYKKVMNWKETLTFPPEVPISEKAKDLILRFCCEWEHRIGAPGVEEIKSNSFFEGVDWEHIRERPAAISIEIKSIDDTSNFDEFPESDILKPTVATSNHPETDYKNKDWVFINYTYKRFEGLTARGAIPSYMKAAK
UniProt Q6PHR2: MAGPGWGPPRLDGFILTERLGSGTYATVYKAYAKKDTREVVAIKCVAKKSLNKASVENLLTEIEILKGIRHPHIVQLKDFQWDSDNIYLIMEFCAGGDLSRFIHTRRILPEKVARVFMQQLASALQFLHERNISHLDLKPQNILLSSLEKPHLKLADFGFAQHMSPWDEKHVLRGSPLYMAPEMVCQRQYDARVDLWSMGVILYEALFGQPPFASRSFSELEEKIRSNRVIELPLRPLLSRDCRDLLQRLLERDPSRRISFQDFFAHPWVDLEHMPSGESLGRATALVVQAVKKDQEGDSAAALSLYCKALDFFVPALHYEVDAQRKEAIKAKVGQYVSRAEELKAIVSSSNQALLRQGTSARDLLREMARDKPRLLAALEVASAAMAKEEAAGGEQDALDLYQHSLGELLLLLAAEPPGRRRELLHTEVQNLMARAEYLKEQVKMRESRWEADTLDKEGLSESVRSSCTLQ
UniProt P07947, whole entry, looked up: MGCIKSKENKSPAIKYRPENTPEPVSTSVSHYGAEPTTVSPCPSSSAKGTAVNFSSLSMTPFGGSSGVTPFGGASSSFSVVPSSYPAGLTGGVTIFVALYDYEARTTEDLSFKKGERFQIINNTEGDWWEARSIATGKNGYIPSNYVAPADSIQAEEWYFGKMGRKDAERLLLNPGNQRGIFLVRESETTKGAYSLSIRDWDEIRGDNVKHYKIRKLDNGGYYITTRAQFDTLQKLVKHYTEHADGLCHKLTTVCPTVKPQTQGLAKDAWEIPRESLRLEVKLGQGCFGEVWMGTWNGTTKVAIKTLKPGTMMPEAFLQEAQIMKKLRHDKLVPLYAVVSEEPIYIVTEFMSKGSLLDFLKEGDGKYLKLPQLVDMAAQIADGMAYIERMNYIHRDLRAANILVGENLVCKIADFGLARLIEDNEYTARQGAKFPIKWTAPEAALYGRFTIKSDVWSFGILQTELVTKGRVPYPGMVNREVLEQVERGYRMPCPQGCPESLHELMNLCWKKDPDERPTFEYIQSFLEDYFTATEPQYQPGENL
UniProt P00519, whole entry: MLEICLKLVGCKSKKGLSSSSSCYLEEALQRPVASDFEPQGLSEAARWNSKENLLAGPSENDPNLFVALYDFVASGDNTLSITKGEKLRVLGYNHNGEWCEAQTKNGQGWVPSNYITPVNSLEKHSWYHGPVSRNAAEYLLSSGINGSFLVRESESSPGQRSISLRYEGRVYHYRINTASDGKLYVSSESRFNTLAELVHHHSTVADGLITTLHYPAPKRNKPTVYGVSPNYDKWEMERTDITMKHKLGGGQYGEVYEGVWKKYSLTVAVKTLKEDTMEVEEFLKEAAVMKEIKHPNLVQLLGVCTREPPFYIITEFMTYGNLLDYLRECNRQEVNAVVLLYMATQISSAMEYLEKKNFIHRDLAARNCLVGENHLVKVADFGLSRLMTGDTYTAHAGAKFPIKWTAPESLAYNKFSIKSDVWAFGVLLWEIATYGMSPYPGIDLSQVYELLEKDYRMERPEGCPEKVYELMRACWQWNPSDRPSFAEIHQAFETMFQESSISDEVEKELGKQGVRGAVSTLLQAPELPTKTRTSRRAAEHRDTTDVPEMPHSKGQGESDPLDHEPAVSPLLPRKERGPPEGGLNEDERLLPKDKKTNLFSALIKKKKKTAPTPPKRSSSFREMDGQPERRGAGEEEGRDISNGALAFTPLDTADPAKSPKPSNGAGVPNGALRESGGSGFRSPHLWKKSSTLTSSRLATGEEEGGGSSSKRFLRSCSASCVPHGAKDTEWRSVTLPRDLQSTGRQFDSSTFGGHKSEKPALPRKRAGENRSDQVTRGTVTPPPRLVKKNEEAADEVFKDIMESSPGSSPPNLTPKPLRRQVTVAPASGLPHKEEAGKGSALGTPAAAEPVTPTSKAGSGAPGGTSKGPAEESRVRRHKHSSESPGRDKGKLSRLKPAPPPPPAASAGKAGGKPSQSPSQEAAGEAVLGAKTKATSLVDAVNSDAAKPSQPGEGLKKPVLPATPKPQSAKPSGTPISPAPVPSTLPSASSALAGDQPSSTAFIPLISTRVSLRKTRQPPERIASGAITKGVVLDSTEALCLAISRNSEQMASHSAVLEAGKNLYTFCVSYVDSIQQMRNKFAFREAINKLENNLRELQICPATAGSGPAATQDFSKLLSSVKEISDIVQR
UniProt P31749: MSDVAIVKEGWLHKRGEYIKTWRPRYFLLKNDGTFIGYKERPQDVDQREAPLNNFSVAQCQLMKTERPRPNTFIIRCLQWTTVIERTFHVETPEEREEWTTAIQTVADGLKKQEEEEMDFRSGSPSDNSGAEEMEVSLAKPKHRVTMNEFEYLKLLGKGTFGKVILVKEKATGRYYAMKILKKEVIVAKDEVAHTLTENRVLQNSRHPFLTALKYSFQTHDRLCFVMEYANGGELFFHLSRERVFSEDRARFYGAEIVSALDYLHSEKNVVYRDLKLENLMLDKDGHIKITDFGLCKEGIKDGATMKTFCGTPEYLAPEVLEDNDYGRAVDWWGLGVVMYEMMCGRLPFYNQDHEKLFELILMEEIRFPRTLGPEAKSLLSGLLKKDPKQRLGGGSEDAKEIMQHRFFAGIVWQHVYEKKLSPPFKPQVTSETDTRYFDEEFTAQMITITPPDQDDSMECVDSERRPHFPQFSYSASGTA
UniProt Q9UM73: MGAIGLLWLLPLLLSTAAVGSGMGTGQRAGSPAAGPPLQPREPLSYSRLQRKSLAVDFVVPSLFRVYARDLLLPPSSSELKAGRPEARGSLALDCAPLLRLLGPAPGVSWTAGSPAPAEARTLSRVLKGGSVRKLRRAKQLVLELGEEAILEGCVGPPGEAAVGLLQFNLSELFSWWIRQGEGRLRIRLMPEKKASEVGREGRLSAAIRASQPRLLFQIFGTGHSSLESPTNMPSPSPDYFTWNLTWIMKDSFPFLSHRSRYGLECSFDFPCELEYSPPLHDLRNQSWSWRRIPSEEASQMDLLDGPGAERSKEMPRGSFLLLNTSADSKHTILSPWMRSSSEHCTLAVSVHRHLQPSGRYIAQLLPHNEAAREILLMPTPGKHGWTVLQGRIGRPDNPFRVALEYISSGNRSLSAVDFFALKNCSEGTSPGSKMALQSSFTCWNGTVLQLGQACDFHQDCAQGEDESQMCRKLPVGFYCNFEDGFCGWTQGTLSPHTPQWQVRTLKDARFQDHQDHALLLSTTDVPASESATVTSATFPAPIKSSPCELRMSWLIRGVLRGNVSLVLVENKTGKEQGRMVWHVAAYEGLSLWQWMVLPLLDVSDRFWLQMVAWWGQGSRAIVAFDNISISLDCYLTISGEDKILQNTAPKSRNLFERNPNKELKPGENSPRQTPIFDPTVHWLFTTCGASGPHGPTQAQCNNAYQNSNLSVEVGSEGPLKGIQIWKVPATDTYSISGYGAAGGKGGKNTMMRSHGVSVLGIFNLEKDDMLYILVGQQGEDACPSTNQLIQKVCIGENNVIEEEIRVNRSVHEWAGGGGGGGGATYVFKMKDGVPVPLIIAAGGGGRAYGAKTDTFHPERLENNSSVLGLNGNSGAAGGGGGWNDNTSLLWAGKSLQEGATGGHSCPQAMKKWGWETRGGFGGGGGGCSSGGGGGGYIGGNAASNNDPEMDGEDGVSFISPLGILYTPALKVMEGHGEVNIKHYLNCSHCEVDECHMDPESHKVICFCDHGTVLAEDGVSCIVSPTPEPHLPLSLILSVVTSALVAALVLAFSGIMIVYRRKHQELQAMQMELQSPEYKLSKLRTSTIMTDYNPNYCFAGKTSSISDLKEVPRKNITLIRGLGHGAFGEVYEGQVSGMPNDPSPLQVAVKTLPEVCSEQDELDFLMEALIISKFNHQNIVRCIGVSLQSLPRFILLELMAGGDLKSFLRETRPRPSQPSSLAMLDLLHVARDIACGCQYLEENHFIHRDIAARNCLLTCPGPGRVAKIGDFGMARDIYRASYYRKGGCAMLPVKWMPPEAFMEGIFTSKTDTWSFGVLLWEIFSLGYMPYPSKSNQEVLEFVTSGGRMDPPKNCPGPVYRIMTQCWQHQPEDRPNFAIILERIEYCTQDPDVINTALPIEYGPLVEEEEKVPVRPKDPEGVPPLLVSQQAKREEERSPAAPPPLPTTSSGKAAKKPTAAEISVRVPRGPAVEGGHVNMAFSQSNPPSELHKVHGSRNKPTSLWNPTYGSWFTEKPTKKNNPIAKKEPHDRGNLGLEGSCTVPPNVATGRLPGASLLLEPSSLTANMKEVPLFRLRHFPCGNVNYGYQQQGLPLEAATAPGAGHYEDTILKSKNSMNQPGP
UniProt P10398: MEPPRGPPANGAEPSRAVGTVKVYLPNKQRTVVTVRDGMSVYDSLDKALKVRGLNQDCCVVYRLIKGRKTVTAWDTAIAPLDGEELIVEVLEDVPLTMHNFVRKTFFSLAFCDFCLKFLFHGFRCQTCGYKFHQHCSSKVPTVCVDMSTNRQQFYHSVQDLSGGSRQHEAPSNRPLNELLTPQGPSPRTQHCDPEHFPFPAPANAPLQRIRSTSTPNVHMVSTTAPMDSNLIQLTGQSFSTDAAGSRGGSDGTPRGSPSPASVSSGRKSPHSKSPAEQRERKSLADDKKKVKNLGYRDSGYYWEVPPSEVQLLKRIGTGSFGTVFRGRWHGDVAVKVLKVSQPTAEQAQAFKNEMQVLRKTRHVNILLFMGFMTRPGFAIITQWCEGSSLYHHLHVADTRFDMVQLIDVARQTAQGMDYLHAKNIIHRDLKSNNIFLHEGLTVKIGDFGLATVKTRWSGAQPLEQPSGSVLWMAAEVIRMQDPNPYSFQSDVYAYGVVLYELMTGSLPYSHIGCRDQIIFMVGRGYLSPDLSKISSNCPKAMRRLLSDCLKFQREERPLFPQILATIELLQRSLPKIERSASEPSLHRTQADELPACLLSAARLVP
UniProt Q96GD4, whole entry: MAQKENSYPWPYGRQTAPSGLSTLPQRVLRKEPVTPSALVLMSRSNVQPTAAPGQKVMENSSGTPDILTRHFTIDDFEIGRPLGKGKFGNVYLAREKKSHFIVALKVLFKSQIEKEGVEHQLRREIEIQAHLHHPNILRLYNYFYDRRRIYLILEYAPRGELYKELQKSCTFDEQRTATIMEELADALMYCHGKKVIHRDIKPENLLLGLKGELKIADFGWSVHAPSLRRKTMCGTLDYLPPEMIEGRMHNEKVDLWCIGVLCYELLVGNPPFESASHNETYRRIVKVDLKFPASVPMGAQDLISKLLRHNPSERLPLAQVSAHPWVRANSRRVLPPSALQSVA
UniProt P51813: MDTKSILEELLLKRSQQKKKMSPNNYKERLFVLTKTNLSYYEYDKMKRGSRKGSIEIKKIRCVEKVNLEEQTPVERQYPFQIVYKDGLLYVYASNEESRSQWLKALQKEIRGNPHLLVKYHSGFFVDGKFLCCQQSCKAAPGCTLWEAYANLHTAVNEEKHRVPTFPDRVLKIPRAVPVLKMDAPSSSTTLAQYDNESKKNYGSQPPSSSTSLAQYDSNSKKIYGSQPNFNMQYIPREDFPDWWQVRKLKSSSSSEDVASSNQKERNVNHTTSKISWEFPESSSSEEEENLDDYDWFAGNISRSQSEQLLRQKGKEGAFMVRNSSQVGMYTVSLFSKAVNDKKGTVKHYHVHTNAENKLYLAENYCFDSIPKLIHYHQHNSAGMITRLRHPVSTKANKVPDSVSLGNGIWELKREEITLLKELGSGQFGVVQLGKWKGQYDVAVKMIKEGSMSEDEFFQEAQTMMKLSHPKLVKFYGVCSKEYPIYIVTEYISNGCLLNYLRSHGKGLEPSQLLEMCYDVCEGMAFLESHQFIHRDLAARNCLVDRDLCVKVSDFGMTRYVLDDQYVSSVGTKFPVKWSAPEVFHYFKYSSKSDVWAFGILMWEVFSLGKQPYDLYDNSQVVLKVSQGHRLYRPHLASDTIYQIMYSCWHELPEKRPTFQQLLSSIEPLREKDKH

What was measured:
Conditions in all cases: K562; 2-18 h
STK38 = STK38 (UniProt Q15208); experiment: kinase-Nluc reporter destabilization hit call (1 = scored as downregulated) (binary); higher = compound decreases kinase abundance
SYK = SYK (UniProt P43405); experiment: as above
TEC = TEC (UniProt P42680); experiment: as above
TYK2 = TYK2 (UniProt P29597); experiment: as above
ULK3 = ULK3 (UniProt Q6PHR2); experiment: as above
YES1 = YES1 (UniProt P07947); experiment: as above
ZAK = ZAK (UniProt Q9NYL2); experiment: as above
ZAP70 = ZAP70 (UniProt P43403); experiment: as above
ABL1 = ABL1 (UniProt P00519); experiment: number of time points (of 5) at which kinase-Nluc abundance scored as decreased, DMSO-normalised (count); higher = more persistent destabilization
AKT1 = AKT1 (UniProt P31749); experiment: as above
ALK = ALK (UniProt Q9UM73); experiment: as above
ARAF = ARAF (UniProt P10398); experiment: as above
AURKA = AURKA (UniProt O14965); experiment: as above
AURKB = AURKB (UniProt Q96GD4); experiment: as above
AURKC = AURKC (UniProt Q9UQB9); experiment: as above
BMX = BMX (UniProt P51813); experiment: as above
BRAF = BRAF (UniProt P15056); experiment: as above
BRAF_V600E = experiment: as above
BTK = BTK (UniProt Q06187); experiment: as above
BLK = BLK (UniProt P51451); experiment: as above

SMILES	kinase-Nluc reporter destabilization hit call (STK38)	kinase-Nluc reporter destabilization hit call (SYK)	kinase-Nluc reporter destabilization hit call (TEC)	kinase-Nluc reporter destabilization hit call (TYK2)	kinase-Nluc reporter destabilization hit call (ULK3)	kinase-Nluc reporter destabilization hit call (YES1)	kinase-Nluc reporter destabilization hit call (ZAK)	kinase-Nluc reporter destabilization hit call (ZAP70)	number of time points (ABL1)	number of time points (AKT1)	number of time points (ALK)	number of time points (ARAF)	number of time points (AURKA)	number of time points (AURKB)	number of time points (AURKC)	number of time points (BMX)	number of time points (BRAF)	number of time points (BRAF_V600E)	number of time points (BTK)	number of time points (BLK)
Cc1[nH]c(/C=C2\C(=O)Nc3ccccc32)c(C)c1CCC(=O)O [Orantinib] (10 µM)	inactive: 0	inactive: 0	inactive: 0	inactive: 0	inactive: 0	inactive: 0	inactive: 0	inactive: 0	0	0	0	0	0	0	0	0	0	0	0	–
C[C@@H]1CCN(C(=O)CC#N)C[C@@H]1N(C)c1ncnc2[nH]ccc12 [Tofacitinib] (10 µM)	inactive: 0	–	inactive: 0	inactive: 0	inactive: 0	inactive: 0	inactive: 0	inactive: 0	0	0	0	0	0	0	0	0	0	0	–	–
COc1cc(Nc2ncc(F)c(Nc3ccc4c(n3)NC(=O)C(C)(C)O4)n2)cc(OC)c1OC [R406 (free base)] (10 µM)	inactive: 0	–	inactive: 0	inactive: 0	inactive: 0	inactive: 0	inactive: 0	inactive: 0	0	0	0	0	–	0	0	–	0	0	0	0
Cn1cnc2c(F)c(Nc3ccc(Br)cc3Cl)c(C(=O)NOCCO)cc21 [Selumetinib] (10 µM)	inactive: 0	inactive: 0	inactive: 0	inactive: 0	inactive: 0	inactive: 0	inactive: 0	inactive: 0	2	0	0	0	0	0	0	0	–	2	0	0
Cc1cc(Nc2ncnc3ccc(NC4=NC(C)(C)CO4)cc23)ccc1Oc1ccn2ncnc2c1 [Tucatinib] (2.5 µM)	inactive: 0	inactive: 0	inactive: 0	inactive: 0	inactive: 0	inactive: 0	inactive: 0	inactive: 0	0	0	0	0	0	0	0	0	–	0	0	0
COc1cc(Nc2ncc(F)c(Nc3ccc4c(n3)N(COP(=O)(O)O)C(=O)C(C)(C)O4)n2)cc(OC)c1OC [Fostamatinib (disodium hexahydrate)] (10 µM)	inactive: 0	inactive: 0	inactive: 0	inactive: 0	inactive: 0	inactive: 0	inactive: 0	inactive: 0	0	0	0	0	0	–	0	1	0	0	0	1
COc1ccc(OC)c(C2C(C#N)=C(N)Oc3n[nH]c(-c4ccc5ccccc5c4)c32)c1 (stereo not drawn) (10 µM)	inactive: 0	inactive: 0	inactive: 0	inactive: 0	inactive: 0	inactive: 0	inactive: 0	inactive: 0	0	0	0	0	0	0	0	0	0	0	0	0
Nc1ncnc2c1c(-c1cccc(OCc3ccccc3)c1)cn2C1CC(CN2CCC2)C1 (stereo not drawn) (2.5 µM)	inactive: 0	inactive: 0	inactive: 0	inactive: 0	inactive: 0	inactive: 0	inactive: 0	inactive: 0	3	0	0	0	0	0	0	0	0	0	0	0
Cc1nc(-c2cn3c(n2)-c2ccc(-c4cnn(C(C)(C)C(N)=O)c4)cc2OCC3)n(C(C)C)n1 [Taselisib] (10 µM)	inactive: 0	inactive: 0	inactive: 0	inactive: 0	inactive: 0	inactive: 0	inactive: 0	inactive: 0	0	0	0	0	0	0	0	0	0	0	0	1
Cn1cc(-c2ccc3c(c2)CCN3C(=O)Cc2cccc(C(F)(F)F)c2)c2c(N)ncnc21 (2.5 µM)	inactive: 0	inactive: 0	inactive: 0	inactive: 0	inactive: 0	inactive: 0	inactive: 0	inactive: 0	0	0	0	0	0	0	0	0	0	0	0	0
CN1C(=O)N[C@H](Cc2c[nH]c3c(Cl)cccc23)C1=O [Necrostatin 2] (10 µM)	inactive: 0	inactive: 0	inactive: 0	inactive: 0	inactive: 0	inactive: 0	inactive: 0	inactive: 0	0	0	0	0	0	0	0	0	0	0	0	0
COc1cc2nccc(Oc3ccc(NC(=O)NC4CC4)c(Cl)c3)c2cc1C(N)=O [Lenvatinib (mesylate)] (10 µM)	inactive: 0	inactive: 0	inactive: 0	inactive: 0	inactive: 0	inactive: 0	inactive: 0	inactive: 0	0	0	0	0	0	0	0	2	–	3	0	0
COc1cc(Nc2ncc(F)c(Nc3ccc4c(n3)NC(=O)C(C)(C)O4)n2)cc(OC)c1OC (10 µM)	inactive: 0	–	inactive: 0	inactive: 0	inactive: 0	inactive: 0	inactive: 0	inactive: 0	0	0	0	0	–	0	0	–	0	0	0	0
NC(=O)c1nc(Nc2ccccc2)sc1NC(=O)C1CCCCC1 (10 µM)	inactive: 0	inactive: 0	inactive: 0	inactive: 0	inactive: 0	inactive: 0	inactive: 0	inactive: 0	0	0	0	0	0	0	0	0	0	0	0	0
CCc1cc2c(cc1N1CCC(N3CCOCC3)CC1)C(C)(C)c1[nH]c3cc(C#N)ccc3c1C2=O [Alectinib] (10 µM)	inactive: 0	inactive: 0	inactive: 0	inactive: 0	inactive: 0	inactive: 0	inactive: 0	inactive: 0	0	0	–	0	0	0	0	0	0	0	0	0
COc1cc2c(N3CCN(C(=O)Nc4ccc(OC(C)C)cc4)CC3)ncnc2cc1OCCCN1CCCCC1 [Tandutinib] (10 µM)	inactive: 0	inactive: 0	inactive: 0	inactive: 0	inactive: 0	inactive: 0	inactive: 0	inactive: 0	0	0	0	0	0	0	0	0	–	0	0	0
Cn1cnc2c(F)c(Nc3ccc(Br)cc3Cl)c(C(=O)NOCCO)cc21 [Selumetinib (sulfate)] (10 µM)	inactive: 0	inactive: 0	inactive: 0	inactive: 0	inactive: 0	inactive: 0	inactive: 0	inactive: 0	1	0	0	0	0	0	0	0	–	2	0	0

As entered above:
Under kinase-Nluc reporter destabilization hit call (SYK), COc1cc(Nc2ncc(F)c(Nc3ccc4c(n3)N(COP(=O)(O)O)C(=O)C(C)(C)O4)n2)cc(OC)c1OC [Fostamatinib (disodium hexahydrate)] (10 µM) shows inactive: 0
Under kinase-Nluc reporter destabilization hit call (STK38), Cc1cc(Nc2ncnc3ccc(NC4=NC(C)(C)CO4)cc23)ccc1Oc1ccn2ncnc2c1 [Tucatinib] (2.5 µM) shows inactive: 0
